This note sets out measurements from PMC10454665, “Structural Analysis of Plasmodium falciparum Hexokinase Provides Novel Information about Catalysis Due to a Plasmodium-Specific Insertion” (International Journal of Molecular Sciences, 2023).

These are yes or no findings as the source states them, for the method shown. Some entries that bind do so weakly or less than the wild type.

The experiment has as its target Plasmodium falciparum hexokinase (Plasmodium falciparum) (UniProt Q02155). The experiment can be described thus: crystal structure; sitting drop, 20% PEG 3350, 200 mM sodium citrate, 0.1 M sodium citrate buffer pH 3.4-4.0; 5-8 mg/mL PfHK with 10 mM glucose, 10 mM ATP, 5 mM DTT; space group P3(1)21, two monomers in the asymmetric unit, tetramer by a crystallographic 2-fold axis; both purified.

B1: Plasmodium falciparum hexokinase (enzyme)
chain: MSEYDIAKNDVTYTKLDTIECDIPINEELSWRINKFVNQLRISYSTLEEFVDNFVYELKKGLEAHRKHPNLWIPHECSFKMLDSCIANIPTGQEKGTYYAIDFGGTNFRAVRASLDGKGKIKRDQETYSLKFTGSYSHEKGLLDKHATASQLFDHFAERIKYIMGEFNDLDNKEVKSVGFTFSFPCTSPSINCSILIDWTKGFETGRATNDPVEGRDVCKLMNDAFVRAAIPAKVCCVLNDAVGTLMSCAYQKGRGTPPCYIGIILGTGSNGCYYEPEWKKYKYAGKIINIEFGNFDKDLPTSPIDLVMDWYSANRSRQLFEKMISGAYLGEIVRRFMVNVLQSACSKKMWISDSFNSESGSVVLNDTSKNFEDSRKVAKAAWDMDFTDEQIYVLRKICEAVYNRSAALARGTIAAIAKRIKIIEHSKFTCGVDGSLFVKNAWYCKRLQEHLKVILADKAENLIIIPADDGSGKGAAITAAVIALNADIPQLP
notes: Hexokinase of Plasmodium falciparum, PlasmoDB PF3D7_0624000, gene ordered codon-optimised for E. coli and cloned into pET30a-c(+); the model holds I25-N486 (subunit A) and I23-I489 (subunit B); The PlasmoDB id is that of strain 3D7; also called PfHK; P. falciparum hexokinase
For B1, the binding entry is “binds”.
